# Laboratory results from the supplement of paper PMC8728848.
# Some of the results follow.
# Columns and labels:
# Assay in all cases: glycan array binding signal (z-score within array); higher = stronger binding
# Conditions in all cases: glycan notation: IUPAC condensed, linker removed
# [1] = biological target: GlcNAc(b1-3)GalNAc
# How it was run: (§1)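 Glycan array data were curated from 3228 arrays in the Consortium for Functional Glycomics database and kept only where the protein sequence was available. Glycan names were converted to IUPAC-condensed notation, and columns mapping to the same glycan were averaged. The binding signal is a within-array Z-score, averaged across arrays of the same protein sequence at different concentrations or buffers and across linkers. Negative Z-scores can be read as non-binding.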
# [2] = biological target: GlcNAc(b1-3)Man
# How it was run: as §1
# [3] = biological target: GlcNAc(b1-3)[GlcNAc(b1-4)][GlcNAc(b1-6)]GlcNAc
# How it was run: as §1
# [4] = biological target: GlcNAc(b1-3)[GlcNAc(b1-6)]Gal(b1-4)GlcNAc
# How it was run: as §1
# [5] = biological target: GlcNAc(b1-3)[GlcNAc(b1-6)]GalNAc
# How it was run: as §1
# [6] = biological target: GlcNAc(b1-4)Gal(b1-4)GlcNAc
# How it was run: as §1
# [7] = biological target: GlcNAc(b1-4)GlcNAc
# How it was run: as §1
# [8] = biological target: GlcNAc(b1-4)GlcNAc(b1-4)GlcNAc
# How it was run: as §1
# [9] = biological target: GlcNAc(b1-4)GlcNAc(b1-4)GlcNAc(b1-4)GlcNAc(b1-4)GlcNAc
# How it was run: as §1
# [10] = biological target: GlcNAc(b1-4)GlcNAc(b1-4)GlcNAc(b1-4)GlcNAc(b1-4)GlcNAc(b1-4)GlcNAc
# How it was run: as §1
# [11] = biological target: GlcNAc(b1-4)[GlcNAc(b1-6)]GalNAc
# How it was run: as §1
# [12] = biological target: GlcNAc(b1-6)Gal(b1-4)GlcNAc
# How it was run: as §1
# [13] = biological target: GlcNAc(b1-6)GalNAc
# How it was run: as §1
# [14] = biological target: GlcNAc6S(b1-3)Gal(b1-4)GlcNAc
# How it was run: as §1
# [15] = biological target: Kdn(a2-3)Gal(b1-3)GalNAc
# How it was run: as §1
# [16] = biological target: Kdn(a2-3)Gal(b1-3)GlcNAc
# How it was run: as §1
# [17] = biological target: Kdn(a2-3)Gal(b1-4)Glc
# How it was run: as §1
# [18] = biological target: Kdn(a2-3)Gal(b1-4)GlcNAc
# How it was run: as §1
# [19] = biological target: Kdn(a2-3)Gal(b1-4)[Fuc(a1-3)]GlcNAc
# How it was run: as §1
# [20] = biological target: Kdn(a2-6)Gal(b1-4)GlcNAc
# How it was run: as §1
# [21] = biological target: Man(a1-2)Man(a1-2)Man(a1-3)Man
# How it was run: as §1
# [22] = biological target: Man(a1-2)Man(a1-2)Man(a1-6)[Man(a1-3)]Man
# How it was run: as §1
# [23] = biological target: Man(a1-2)Man(a1-3)Man
# How it was run: as §1
# [24] = biological target: Man(a1-2)Man(a1-3)[Man(a1-2)Man(a1-6)]Man
# How it was run: as §1
# [25] = biological target: Man(a1-2)Man(a1-3)[Man(a1-2)Man(a1-6)]Man(a1-6)[Man(a1-2)Man(a1-2)Man(a1-3)]Man
# How it was run: as §1
# [26] = biological target: Man(a1-2)Man(a1-3)[Man(a1-2)Man(a1-6)]Man(a1-6)[Man(a1-2)Man(a1-2)Man(a1-3)]Man(b1-4)GlcNAc(b1-4)GlcNAc
# How it was run: as §1
# [27] = biological target: Man(a1-2)Man(a1-3)[Man(a1-6)]Man(a1-6)[Man(a1-2)Man(a1-3)]Man(b1-4)GlcNAc(b1-4)GlcNAc
# How it was run: as §1
# [28] = biological target: Man(a1-2)Man(a1-6)[Man(a1-3)]Man(a1-6)[Man(a1-2)Man(a1-2)Man(a1-3)]Man
# How it was run: as §1
# [29] = biological target: Man(a1-2)Man(a1-6)[Man(a1-3)]Man(a1-6)[Man(a1-2)Man(a1-2)Man(a1-3)]Man(b1-4)GlcNAc(b1-4)GlcNAc
# How it was run: as §1
# [30] = biological target: Man(a1-3)[Man(a1-6)]Man
# How it was run: as §1
# [31] = biological target: Man(a1-3)[Man(a1-6)]Man(a1-6)[Man(a1-2)Man(a1-3)]Man(b1-4)GlcNAc(b1-4)GlcNAc
# How it was run: as §1
# [32] = biological target: Man(a1-3)[Man(a1-6)]Man(a1-6)[Man(a1-3)]Man
# How it was run: as §1
# [33] = biological target: Man(a1-3)[Man(a1-6)]Man(a1-6)[Man(a1-3)]Man(b1-4)GlcNAc(b1-4)GlcNAc
# How it was run: as §1
# [34] = biological target: Man(a1-3)[Man(a1-6)]Man(b1-4)GlcNAc(b1-4)GlcNAc
# How it was run: as §1
# [35] = biological target: Man(a1-3)[Man(a1-6)]Man(b1-4)GlcNAc(b1-4)[Fuc(a1-6)]GlcNAc
# How it was run: as §1
# [36] = biological target: Man(a1-6)Man
# How it was run: as §1
# [37] = biological target: Man(b1-4)GlcNAc
# How it was run: as §1
# [38] = biological target: MurNAc(b1-4)GlcNAc
# How it was run: as §1
binder,measurement,setting,value
SabA (Helicobacter pylori) (protein) MGSSHHHHHHSSGLVPRGSHMENLYFQGEDNGFFVSAGYQIGEAVQMVKNTGELKNLNEKYEQLSQYLNQVASLKQSIQNANNIELVNSSLNYLKSFTNNNYNSTTQSPIFNAVQAVITSVLGFWSLYAGNYFTFFVGKKVGDSGQPASVQGNPPFKTIIENCSGIENCAMDQTTYDKMKKLAEDLQAAQTNSATKGNNLCALSGCAATDSTSNPPNSTVSNALNLAQQLMDLIANTKTAMMWKNIVISGVSNTSGAITSTNYPTQYAVFNNIKAMIPILQQAVTLSQSNHTLSASLQAQATGSQTNPKFAKDIYTFAQNQKQVISYAQDIFNLFNSIPAEQYKYLEKAYLKIPNAGSTPTNPYRQVVNLNQEVQTIKNNVSYYGNRVDAALSVARDVYNLKSNQAEIVTAYNDAKTLSEEISKLPHNQVNTKDIVTLPYDKNAPAAGQSNYQINPEQQSNLNQALAAMSNNPFKKVGMISSQNNNGA,glycan array binding signal (z-score),[1],0.191
same,glycan array binding signal (z-score),[2],1.69
same,glycan array binding signal (z-score),[3],0.253
same,glycan array binding signal (z-score),[4],-0.211
same,glycan array binding signal (z-score),[5],-0.594
same,glycan array binding signal (z-score),[6],-0.173
same,glycan array binding signal (z-score),[7],-0.344
same,glycan array binding signal (z-score),[8],-0.052
same,glycan array binding signal (z-score),[9],-0.702
same,glycan array binding signal (z-score),[10],0.285
same,glycan array binding signal (z-score),[11],-0.072
same,glycan array binding signal (z-score),[12],-0.325
same,glycan array binding signal (z-score),[13],0.444
same,glycan array binding signal (z-score),[14],0.452
same,glycan array binding signal (z-score),[15],-0.318
same,glycan array binding signal (z-score),[16],-0.237
same,glycan array binding signal (z-score),[17],-0.181
same,glycan array binding signal (z-score),[18],-0.622
same,glycan array binding signal (z-score),[19],1.18
same,glycan array binding signal (z-score),[20],0.023
same,glycan array binding signal (z-score),[21],-0.006
same,glycan array binding signal (z-score),[22],0.041
same,glycan array binding signal (z-score),[23],0.442
same,glycan array binding signal (z-score),[24],-0.459
same,glycan array binding signal (z-score),[25],-0.119
same,glycan array binding signal (z-score),[26],-0.148
same,glycan array binding signal (z-score),[27],-0.009
same,glycan array binding signal (z-score),[28],-0.091
same,glycan array binding signal (z-score),[29],0.194
same,glycan array binding signal (z-score),[30],0.183
same,glycan array binding signal (z-score),[31],0.278
same,glycan array binding signal (z-score),[32],0.018
same,glycan array binding signal (z-score),[33],0.145
same,glycan array binding signal (z-score),[34],-0.465
same,glycan array binding signal (z-score),[35],-0.191
same,glycan array binding signal (z-score),[36],-0.738
same,glycan array binding signal (z-score),[37],-0.002
same,glycan array binding signal (z-score),[38],-0.054
